Assay results reported in PMC10761869 (Nature Communications, 2024).
Positions count from the first letter of the chain named. Names may count otherwise. These are yes or no findings as the source states them, for the method shown. Some binding calls cover weakened binding; strength is not graded here. Where a sequence is shown, tags or fusion partners need not be part of it. Values belong to the molecule of their own block, whether it stands above or below them.

Chains of the proteins cited; added tags and fusions are not shown.
UniProt P10591: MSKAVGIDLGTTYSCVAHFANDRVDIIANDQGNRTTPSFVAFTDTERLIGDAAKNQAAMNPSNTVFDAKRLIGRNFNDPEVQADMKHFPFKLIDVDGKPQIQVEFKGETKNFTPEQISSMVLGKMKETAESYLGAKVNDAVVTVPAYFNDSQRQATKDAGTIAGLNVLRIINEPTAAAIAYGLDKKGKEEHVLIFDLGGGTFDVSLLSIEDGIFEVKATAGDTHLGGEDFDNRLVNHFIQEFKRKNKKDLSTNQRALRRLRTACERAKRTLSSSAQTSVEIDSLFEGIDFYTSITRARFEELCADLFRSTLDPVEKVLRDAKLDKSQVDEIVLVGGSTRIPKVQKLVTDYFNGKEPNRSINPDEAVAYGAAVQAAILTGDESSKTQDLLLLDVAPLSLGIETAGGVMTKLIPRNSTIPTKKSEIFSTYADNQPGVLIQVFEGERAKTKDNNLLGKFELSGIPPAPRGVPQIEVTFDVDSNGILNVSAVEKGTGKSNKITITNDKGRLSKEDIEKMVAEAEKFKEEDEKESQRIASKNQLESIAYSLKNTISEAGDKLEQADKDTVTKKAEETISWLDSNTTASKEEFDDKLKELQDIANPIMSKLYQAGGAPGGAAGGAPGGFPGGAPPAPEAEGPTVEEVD
UniProt P25491: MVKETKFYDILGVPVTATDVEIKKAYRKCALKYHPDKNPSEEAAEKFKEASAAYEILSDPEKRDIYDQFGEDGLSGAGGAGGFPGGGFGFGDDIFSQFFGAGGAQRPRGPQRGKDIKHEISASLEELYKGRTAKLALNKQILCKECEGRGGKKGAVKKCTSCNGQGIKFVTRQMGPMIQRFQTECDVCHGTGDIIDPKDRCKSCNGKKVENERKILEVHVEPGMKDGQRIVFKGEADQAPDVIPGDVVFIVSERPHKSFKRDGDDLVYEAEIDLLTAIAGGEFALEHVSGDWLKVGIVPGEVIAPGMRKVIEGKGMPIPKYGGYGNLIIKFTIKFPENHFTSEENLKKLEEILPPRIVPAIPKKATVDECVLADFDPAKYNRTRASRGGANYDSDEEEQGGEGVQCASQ

Legend:
[1] = target: T1, His6-Sgt2 (wildtype Sgt2) (UniProt Q12118); test: pull-down; TA (0.3 µM) loaded on 3 µM Ssa1 with 2 mM ATP, with or without 3 µM Ydj1, then 0.6 µM His6-Sgt2; Talon resin, GET buffer (150 mM KOAc) with 5 mM imidazole wash; both purified
T1 sequence: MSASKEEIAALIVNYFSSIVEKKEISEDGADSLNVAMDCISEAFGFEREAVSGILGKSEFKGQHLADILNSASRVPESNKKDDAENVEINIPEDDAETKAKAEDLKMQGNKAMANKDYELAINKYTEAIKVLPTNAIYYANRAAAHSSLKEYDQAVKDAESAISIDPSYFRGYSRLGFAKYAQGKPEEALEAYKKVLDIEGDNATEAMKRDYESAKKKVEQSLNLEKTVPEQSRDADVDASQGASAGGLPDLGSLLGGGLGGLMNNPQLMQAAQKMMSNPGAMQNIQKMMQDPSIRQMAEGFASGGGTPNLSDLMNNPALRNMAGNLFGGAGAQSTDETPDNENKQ

[2] = target: T1, His6-Sgt2 (wildtype Sgt2); test: condition: only high salt wash (GET buffer with 500 mM NaCl); pull-down; as a4, but resin washed with 100 column volumes of GET buffer with 500 mM NaCl (high salt wash); both purified
[3] = target: T2, His6-tagged wildtype Sgt2 (S. cerevisiae (printed as ScSgt2)) (UniProt Q12118); test: pull-down; 0.6 µM His6-Sgt2 added for 1 min to a preformed Ssa1-TA complex (0.3 µM TA, 3 µM Ssa1, 2 mM ATP, with or without 3 µM Ydj1) in GET buffer; captured on Talon resin at 4 °C, washed with GET buffer + 5 mM imidazole, eluted with 300 mM imidazole; silver stain and anti-Strep western blot; both purified
T2 sequence: T1 sequence

[4] = target: His-Sgt2 Q242C (S. cerevisiae (printed as ScSgt2)) (UniProt Q12118); test: cross-linking; thiol crosslinker BMH: 0.3 µM His-Sgt2 (0.5 µM in Supplementary Figure 7a) with 0.5 or 1 mM BMH at room temperature for 1 h; anti-His western blot, or Coomassie staining and fluoroscan at 635 nm; intradimer crosslink; both purified
[5] = target: His-Sgt2 Q346C (S. cerevisiae (printed as ScSgt2)) (UniProt Q12118); test: as above
[6] = target: His-Sgt2 S335C (S. cerevisiae (printed as ScSgt2)) (UniProt Q12118); test: as above
[7] = target: His-Sgt2 G306C (S. cerevisiae (printed as ScSgt2)) (UniProt Q12118); test: as above
[8] = target: His6-Sgt2-G258C (S. cerevisiae (printed as ScSgt2)) (UniProt Q12118); test: as above
[9] = target: His6-Sgt2-G258C (S. cerevisiae (printed as ScSgt2)) (UniProt Q12118); test: cross-linking; purified Sgt2-C258-TA complex (TA translated in S30 lysate with His6-Sgt2-G258C, purified via the His6-tag, 1 mM TCEP) incubated with 1 mM BMH at RT; anti-His western blot; both purified

Molecule: Ssa1 (tagless) (from UniProt P10591 1-642)
binding [2]: no binding

Molecule: Ydj1 (from UniProt P25491 1-409)
binding [3]: no binding (tested: 3 µM Ydj1)

B3: His-Sgt2 S335C (protein, UniProt Q12118 1-346)
chain: T1 sequence with S335C
binding [6]: binds

B5: His6-Sgt2-G258C (protein, UniProt Q12118 1-346)
chain: T1 sequence with G258C
binding [8]: binds | binding [9]: binds

Further lines, results first:

binding [1]: no binding (tested: 3 µM Ydj1)
Molecule: Ydj1 (tagless) (from UniProt P25491 1-409)

binding [4]: binds
B1: His-Sgt2 Q242C (protein, UniProt Q12118 1-346)
chain: T1 sequence with Q242C

binding [5]: binds
B2: His-Sgt2 Q346C (protein, UniProt Q12118 1-346)
chain: T1 sequence with Q346C

binding [7]: binds
B4: His-Sgt2 G306C (protein, UniProt Q12118 1-346)
chain: T1 sequence with G306C
